# Laboratory results from the odorant receptor screen of Mainland et al. (2015).
# Values joined by “and” are separate entries in the source; they are usually repeats but may differ in a detail not shown here. Equal values may be shown once. The list shows a part of the results. Each value is one well over the wells without odorant, computed here; the data are noisy.
# Key:
# Assay in all cases: odorant receptor activation (CRE luciferase / Renilla) (fold of no-odor wells); higher = more activation
# Details in all cases: 100 µM
# OR5H6 clone 1470 = system: OR5H6 clone 1470
# OR5I1 clone 1146 = system: OR5I1 clone 1146
# OR5J2 clone 1241 = system: OR5J2 clone 1241
# OR5K1 clone 1502 = system: OR5K1 clone 1502
# OR5K2 clone 1068 = system: OR5K2 clone 1068
# OR5K3 clone 1514 = system: OR5K3 clone 1514
# OR5K4 I206V clone 1729 = system: OR5K4 I206V clone 1729
# OR5L1 clone 1204 = system: OR5L1 clone 1204
# OR5L1 clone 1383 = system: OR5L1 clone 1383
# OR5L1 clone 1720 = system: OR5L1 clone 1720
SMILES,odorant receptor activation (OR5H6 clone 1470),odorant receptor activation (OR5I1 clone 1146),odorant receptor activation (OR5J2 clone 1241),odorant receptor activation (OR5K1 clone 1502),odorant receptor activation (OR5K2 clone 1068),odorant receptor activation (OR5K3 clone 1514),odorant receptor activation (OR5K4 I206V clone 1729),odorant receptor activation (OR5L1 clone 1204),odorant receptor activation (OR5L1 clone 1383),odorant receptor activation (OR5L1 clone 1720)
COC(=O)c1ccccc1O [methyl salicylate],0.758,0.653,0.885,1.04,0.998,0.877,0.837,1.03,1.04,0.81
CC(=O)OC(C)(C)C1CC=C(C)CC1 (stereo unspecified) [terpinyl acetate],1.3,1.05,1.03,0.785,1.04,1.1,0.686,1.31,0.91,1.19
CC(C)C=O [isobutyraldehyde],0.668 and 1.07,1,0.711,0.925 and 1.07,1.44,0.95 and 0.99,0.99,1.22,0.62,0.675
CCCCCCCC=O [octyl aldehyde],0.803,0.938,0.967,1.13,1.12,1.05,0.831,0.836,0.996,0.857
O=CCc1ccccc1 [phenyl acetaldehyde],1.66,1.28,1.78,0.765,0.92,1.24,3.02,1.35,1.73,1.48
CC(C)C(=O)O [isobutyric acid],0.766 and 1.04,1.18,1.05,0.828 and 1.01,0.633,0.707 and 0.755,1.19,0.867,0.831,0.776
"CC1CCC(C(C)C)C(O)C1 (single isomer, unassigned; (-)) [(-)-menthol]",5,1.16,0.935,1.19,4.52,0.862,1.02,0.936,0.432,0.961
C=CC(C)(O)CCC=C(C)C (stereo unspecified) [linalool],0.887,0.824,0.863,1.05,1.09,0.795,0.958,1.19,1.12,0.621
CC(=O)C(C)=O [diacetyl],1.17,1.24,0.933,1.57,1.1,1.3,0.528,0.787,1.24,0.491
CC12CCC(C1)C(C)(C)C2=O (stereo unspecified) [fenchone],0.801,0.99,0.885,1.22,0.933,1.09,0.866,0.945,1.06,0.729
COc1cc(C=O)ccc1O [vanillin],1.02,0.988,0.944,1.05,0.66,0.849,1.24,1.38,1.15,0.532
c1cnccn1 [pyrazine],0.869,0.944,0.772,0.69,0.813,0.82,0.995,0.878,1.16,0.87
C=CCc1ccc(OC(C)=O)c(OC)c1 [eugenol acetate],1.98,2.26,2.15,1.43,1.32,2,1.51,1.43,2.11,1.65
"CC1CCC(C(C)C)C(O)C1 (single isomer, unassigned; (+)) [(+)-menthol]",0.961,1.59,0.786,1.26,5.76,0.923,1.1,1.18,0.769,1.13
CC(=O)OC1CC2CCC1(C)C2(C)C (stereo unspecified) [isobornyl acetate],0.727 and 1.1,1.17,0.804,0.983 and 1.02,0.975,0.984 and 1.17,1.08,0.906,0.789,0.688
CCC1(O)C2(C)CCC(C2)C1(C)C (stereo unspecified) [2-ethylfenchol],1.21,1.22,0.65,1.02,6.42,0.942,0.813,0.824,0.669,0.946
CCCCO [1-butanol],1.1,0.981,0.685,1.34,5.81,1.01,1.01,0.808,0.635,1.12
CC1=CCC(C(C)(C)O)CC1 (stereo unspecified) [terpineol],0.796,1.1,1.07,0.86,0.834,0.795,0.658,1.14,1.04,1.47
C=CCc1ccc(O)c(OC)c1 [eugenol],1.46 and 1 and 1.01,2.77 and 1.66,1.24,1.22 and 1.08 and 1.34,1.17 and 1.37,1.56 and 1 and 1.1,0.63,1.63 and 1.1,1.31 and 1.24,0.8

SMILES,odorant receptor activation (OR5H6 clone 1470),odorant receptor activation (OR5I1 clone 1146),odorant receptor activation (OR5J2 clone 1241),odorant receptor activation (OR5K1 clone 1502),odorant receptor activation (OR5K2 clone 1068),odorant receptor activation (OR5K3 clone 1514),odorant receptor activation (OR5K4 I206V clone 1729),odorant receptor activation (OR5L1 clone 1204),odorant receptor activation (OR5L1 clone 1383),odorant receptor activation (OR5L1 clone 1720)
COc1cc(C)ccc1O [2-methoxy-4-methylphenol],0.872,1.2,0.967,1.15,3.65,0.819,0.992,0.959,0.594,0.91
CCCCCOC(C)=O [n-amyl acetate],0.583 and 0.927,0.529,1.08,0.891 and 0.876,1.42,0.581 and 0.432,0.776,0.638,0.762,1.23
CCCCCCCC=CC=O [2-decenal],2.34,1.25,0.941,1.43,10.7,1.42,1.03,0.736,1.38,1.72
CC12CCC(CC1)C(C)(C)O2 [cineole],0.767,0.781,0.989,0.902,0.676,0.954,1.71,0.846,0.175,0.721
CCCCCCCCOC(C)=O [octyl acetate],0.746,0.886,0.852,1.08,0.985,0.904,0.992,1.07,1.13,0.676
CC=Cc1ccc(O)c(OC)c1 [isoeugenol],0.922 and 2.73,1.19,4.41,1.23 and 1.39,0.643,1.54 and 1.9,6.83,1.76,1.24,3.2
C=CCc1ccc(OC)c(OC)c1 [eugenol methyl ether],1.26,1.49,0.9,1.86,1.32,1.5,0.868,1.48,1.91,1.04
CCCCCCOC(=O)CCC [hexyl butyrate],1.07 and 0.805,0.929,0.843,1.02 and 0.921,0.627,0.779 and 0.755,1,0.897,0.801,0.875
CCCCCCCCCCC=O [undecanal],1.04,0.965,1.36,1.14,0.847,1,0.991,1.06,1.28,1.45
CCCCCCCCCC=O [decyl aldehyde],1.07,1.31,1.09,1.25,1.06,1.34,0.654,1.18,1.44,0.474
CCCCCC(C)=O [2-heptanone],0.945 and 0.648,1.21,–,1.04 and 0.733,1.52,1.23 and 0.504,–,1.18,0.772,–
CC12C=CCC1C1CCC3=CC(=O)CCC3(C)C1CC2 (stereo unspecified) [androstadienone],0.855 and 1.51,1.07,–,0.973 and 1.61,2.78,0.997 and 1.15,–,1.23,0.817,–
O=C1CCCCCCCCCCCC(=O)OCCO1 [ethylene brassylate],1.23,1.78,2.03,1.1,1.31,1.51,0.981,1.75,1.96,0.813
COc1ccccc1O [guaiacol],0.81 and 1.07,1.37,1.14,0.943 and 1.11,1.64,0.847 and 1.09,1.03,1.04,0.86,0.714
COC(=O)c1ccccc1 [methyl benzoate],0.613 and 1.09,0.754,–,0.829 and 1.24,0.97,0.696 and 0.711,–,1.22,0.758,–
CC(=O)c1ccccc1 [acetophenone],1.28 and 0.743,1.31,–,1.34 and 1.04,0.705,1.13 and 0.532,–,1.18,0.898,–
CCCC(=O)O [butyric acid],0.951,0.949,1.17,0.892,1.06,1.13,1.3,0.893,0.212,0.746
CC/C=C\CCO [cis-3-hexen-1-ol],0.869,0.975,1.2,1.09,0.851,1.04,1.25,0.973,0.197,1.18
CCCCCCC=O [heptaldehyde],–,–,1.25,0.792 and 0.768 and 1.09,0.908 and 1.19,–,0.898,–,1.01 and 0.944,0.767

SMILES,odorant receptor activation (OR5H6 clone 1470),odorant receptor activation (OR5I1 clone 1146),odorant receptor activation (OR5J2 clone 1241),odorant receptor activation (OR5K1 clone 1502),odorant receptor activation (OR5K2 clone 1068),odorant receptor activation (OR5K3 clone 1514),odorant receptor activation (OR5K4 I206V clone 1729),odorant receptor activation (OR5L1 clone 1204),odorant receptor activation (OR5L1 clone 1383),odorant receptor activation (OR5L1 clone 1720)
C=CCSCC=C [diallyl sulfide],1.08,1.05,0.964,1.49,0.92,1.24,0.539,0.987,1.05,0.529
CC(=O)OCC=C(C)CCC=C(C)C [geranyl acetate],1.07 and 1.37,0.838,2.28,0.9 and 1.38,2.82,0.987 and 1.34,1.42,1.29,1.19,1.08
CC(C)CCC(=O)O [4-methylvaleric acid],1.03,0.998,0.781,1.1,3.35,0.741,0.883,0.827,0.772,1.14
CC(C)CC(=O)O [isovaleric acid],0.7,0.936,1.06,0.862,1.1,0.992,1.48,1.29,0.975,0.853
O=C1CCCCCCCCCCCCCCO1 [pentadecalactone],0.838,0.874,0.739,0.779,0.669,0.768,0.956,0.778,1.11,0.757
O=C1CCCCC1 [Cyclohexanone],0.567 and 0.927,0.737,–,0.871 and 1.05,1.09,0.6 and 0.681,–,0.746,0.81,–
CC(C)(O)CCCC1=CCC(C=O)CC1 (stereo unspecified) [lyral],–,–,1.06,–,–,–,0.963,–,–,1.13
c1ccc(Oc2ccccc2)cc1 [diphenyl ether],0.961,1.14,0.782,1.2,0.887,1.12,0.424,0.879,1.07,0.517
CC(C)(C)c1ccc(CCC=O)cc1 [bourgeonal],0.803,0.724,–,0.728,0.74,0.87,–,0.64,0.181,–
CCCCCCCCC=O [nonyl aldehyde],0.893,0.914,1.09,1.12,0.914,1.37,1.26,1.01,1.06,0.815
C=C(C)C1CC=C(C)C(=O)C1 (stereo unspecified) [r-carvone],1.02,1.07,0.879,1.08,0.768,1.01,0.972,1.21,1.38,0.772
CCCCCC(=O)O [caproic acid],0.856,0.91,1.25,0.872,0.977,0.884,1.31,0.936,0.185,0.821
CC1=NC(C)SC1C (stereo unspecified),0.994 and 1.03,0.797,–,1.24 and 1.55,0.723,1.37 and 0.567,–,1.02,0.939,–
CC12C=CCC1C1CCC3CC(=O)CCC3(C)C1CC2 (stereo unspecified) [androstenone],0.928,5.86,–,1.17,4.41,0.846,–,5.04,0.606,–
CC1COCc2cc3c(cc21)C(C)(C)C(C)C3(C)C (stereo unspecified) [galaxolide],–,0.849,0.356 and 0.998,0.867 and 1.67,3.75,6.2 and 4.59,–,3.34,4.26,0.906 and 0.496
CC(C)=CCCC(C)=CC=O [citral],0.951,0.969,0.995,1.11,0.902,1.02,1.05,0.986,0.244,0.841
C=C(C)C1CCC2=CC(=O)CC(C)C2(C)C1 (stereo unspecified) [amyl laurate],–,–,1.04,–,–,–,1.29,–,–,0.939
C=C(C)C1CC=CCC1 (stereo unspecified) [r-limonene],1.23 and 0.764 and 1,1.13 and 0.47,1.06,1.17 and 0.79 and 0.934,0.917 and 1.34,0.84 and 0.685 and 0.608,1.68,1.14 and 0.546,1.28 and 0.835,1.19
CCCCCCCOC(C)=O [heptyl acetate],0.751 and 1.17,0.951,0.837,0.829 and 1.46,1.39,0.81 and 1.2,0.806,0.949,0.922,0.708

# Given tab-delimited: entries from further up.
SMILES	odorant receptor activation (OR5H6 clone 1470)	odorant receptor activation (OR5I1 clone 1146)	odorant receptor activation (OR5J2 clone 1241)	odorant receptor activation (OR5K1 clone 1502)	odorant receptor activation (OR5K2 clone 1068)	odorant receptor activation (OR5K3 clone 1514)	odorant receptor activation (OR5K4 I206V clone 1729)	odorant receptor activation (OR5L1 clone 1204)	odorant receptor activation (OR5L1 clone 1383)	odorant receptor activation (OR5L1 clone 1720)
CC1COCc2cc3c(cc21)C(C)(C)C(C)C3(C)C (stereo unspecified) [galaxolide]	–	0.849	0.356 and 0.998	0.867 and 1.67	3.75	6.2 and 4.59	–	3.34	4.26	0.906 and 0.496
CC(C)=CCCC(C)=CC=O [citral]	0.951	0.969	0.995	1.11	0.902	1.02	1.05	0.986	0.244	0.841
